Experiment [1] has as its target T1, thioredoxin-interacting protein (TXNIP), mouse heart (mouse (endogenous in heart tissue)) (UniProt Q8BG60).
T1 sequence: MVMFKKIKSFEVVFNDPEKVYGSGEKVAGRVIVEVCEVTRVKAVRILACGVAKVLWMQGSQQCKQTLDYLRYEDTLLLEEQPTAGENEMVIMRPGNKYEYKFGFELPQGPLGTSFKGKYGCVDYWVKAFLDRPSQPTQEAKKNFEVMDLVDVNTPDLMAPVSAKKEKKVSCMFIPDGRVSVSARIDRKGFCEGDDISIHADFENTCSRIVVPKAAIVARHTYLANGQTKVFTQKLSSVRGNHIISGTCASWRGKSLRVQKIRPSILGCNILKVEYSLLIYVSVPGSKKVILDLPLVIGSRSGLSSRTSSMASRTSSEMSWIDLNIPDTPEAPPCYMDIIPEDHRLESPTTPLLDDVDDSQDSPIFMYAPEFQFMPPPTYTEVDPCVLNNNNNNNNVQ
Nature of the experiment: co-IP; endogenous co-immunoprecipitation from mouse heart tissue lysate with TXNIP antibody, immunoblot for NLRP3, TXNIP and thioredoxin; mice on ND or HFD for 24 wks, with rAAV9-cTnT-null or rAAV9-cTnT-TXNIP (Figure S5I), or with NS or MitoTEMPO (Figure 7I).

Amino acid sequences for entries named in this document (tags omitted).
UniProt Q8R4B8: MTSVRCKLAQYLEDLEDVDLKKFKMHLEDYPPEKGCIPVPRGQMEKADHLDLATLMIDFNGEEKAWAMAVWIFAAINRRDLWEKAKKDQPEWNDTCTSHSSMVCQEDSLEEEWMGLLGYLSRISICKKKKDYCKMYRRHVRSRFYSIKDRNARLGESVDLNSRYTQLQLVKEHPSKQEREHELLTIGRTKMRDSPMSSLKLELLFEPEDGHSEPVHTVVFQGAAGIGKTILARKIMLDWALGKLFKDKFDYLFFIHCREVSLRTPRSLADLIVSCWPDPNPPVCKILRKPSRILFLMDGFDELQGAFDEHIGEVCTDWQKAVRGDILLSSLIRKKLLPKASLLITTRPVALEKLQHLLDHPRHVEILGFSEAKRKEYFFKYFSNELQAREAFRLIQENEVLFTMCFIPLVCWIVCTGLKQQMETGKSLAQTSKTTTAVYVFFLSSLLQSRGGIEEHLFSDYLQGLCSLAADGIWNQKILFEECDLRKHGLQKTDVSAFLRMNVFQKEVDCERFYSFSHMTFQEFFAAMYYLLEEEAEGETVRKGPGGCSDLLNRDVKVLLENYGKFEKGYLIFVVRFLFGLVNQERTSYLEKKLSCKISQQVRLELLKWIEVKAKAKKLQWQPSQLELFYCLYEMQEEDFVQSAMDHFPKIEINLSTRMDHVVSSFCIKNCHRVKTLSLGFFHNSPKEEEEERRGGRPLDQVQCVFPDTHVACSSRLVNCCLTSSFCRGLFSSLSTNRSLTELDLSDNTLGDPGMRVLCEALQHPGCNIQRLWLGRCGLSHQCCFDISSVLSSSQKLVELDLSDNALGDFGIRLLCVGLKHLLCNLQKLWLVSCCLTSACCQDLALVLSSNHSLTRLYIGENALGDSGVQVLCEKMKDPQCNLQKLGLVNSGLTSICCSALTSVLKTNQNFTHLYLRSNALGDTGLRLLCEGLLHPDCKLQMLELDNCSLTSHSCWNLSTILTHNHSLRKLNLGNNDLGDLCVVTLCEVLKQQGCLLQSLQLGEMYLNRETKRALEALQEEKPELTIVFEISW
UniProt D4A523: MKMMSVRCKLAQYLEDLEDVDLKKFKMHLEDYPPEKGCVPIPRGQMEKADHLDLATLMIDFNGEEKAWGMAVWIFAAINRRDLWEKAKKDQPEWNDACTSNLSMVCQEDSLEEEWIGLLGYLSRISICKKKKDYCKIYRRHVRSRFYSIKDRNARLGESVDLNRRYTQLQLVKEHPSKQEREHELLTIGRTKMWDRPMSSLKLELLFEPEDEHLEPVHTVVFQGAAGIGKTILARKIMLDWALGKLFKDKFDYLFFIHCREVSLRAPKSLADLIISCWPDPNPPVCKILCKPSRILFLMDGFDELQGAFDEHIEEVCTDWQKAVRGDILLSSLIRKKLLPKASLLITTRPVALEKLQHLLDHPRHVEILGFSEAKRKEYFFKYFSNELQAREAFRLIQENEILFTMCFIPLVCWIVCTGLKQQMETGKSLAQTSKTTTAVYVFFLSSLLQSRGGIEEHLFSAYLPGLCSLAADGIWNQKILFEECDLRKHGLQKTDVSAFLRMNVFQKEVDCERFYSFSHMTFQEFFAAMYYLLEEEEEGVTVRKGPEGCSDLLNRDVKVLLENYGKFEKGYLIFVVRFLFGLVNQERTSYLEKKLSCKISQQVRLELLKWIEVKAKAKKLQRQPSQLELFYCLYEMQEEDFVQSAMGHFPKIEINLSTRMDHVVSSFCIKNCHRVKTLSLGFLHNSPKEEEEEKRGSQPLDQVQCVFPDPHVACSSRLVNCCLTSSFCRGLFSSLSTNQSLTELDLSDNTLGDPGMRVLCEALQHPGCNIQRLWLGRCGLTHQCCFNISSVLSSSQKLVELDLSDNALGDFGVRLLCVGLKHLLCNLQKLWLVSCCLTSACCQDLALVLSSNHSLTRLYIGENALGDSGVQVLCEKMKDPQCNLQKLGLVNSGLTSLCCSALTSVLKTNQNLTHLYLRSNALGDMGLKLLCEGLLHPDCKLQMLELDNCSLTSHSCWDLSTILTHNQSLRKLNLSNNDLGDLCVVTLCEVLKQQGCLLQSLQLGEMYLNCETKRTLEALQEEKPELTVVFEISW

The target in experiment [2] is T2, thioredoxin-interacting protein (TXNIP), neonatal rat ventricular myocytes (rat (endogenous in neonatal rat ventricular myocytes)) (UniProt Q5M7W1).
T2 sequence: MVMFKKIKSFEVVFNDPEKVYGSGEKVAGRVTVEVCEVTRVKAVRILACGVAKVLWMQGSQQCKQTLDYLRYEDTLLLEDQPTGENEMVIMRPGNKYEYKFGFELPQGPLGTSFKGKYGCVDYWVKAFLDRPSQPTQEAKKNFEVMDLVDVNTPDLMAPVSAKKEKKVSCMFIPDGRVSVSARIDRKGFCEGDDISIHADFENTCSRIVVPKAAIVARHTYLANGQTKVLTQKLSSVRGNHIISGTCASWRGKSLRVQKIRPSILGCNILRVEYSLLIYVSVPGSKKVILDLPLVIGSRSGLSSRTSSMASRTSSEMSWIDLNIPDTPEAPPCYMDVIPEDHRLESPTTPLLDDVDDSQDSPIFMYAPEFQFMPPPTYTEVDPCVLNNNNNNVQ
As to the kind of experiment: co-IP; endogenous co-immunoprecipitation from NRVM cell lysates with TXNIP antibody, immunoblot for NLRP3, TXNIP and TRX; cells in BSA or BSA+PA medium for 24 h, with PBS or MitoTEMPO, with siTXNIP or siCTR.

Binding data for two substances are collected here from paper PMC11681593.

These are yes or no findings as the source states them, for the method shown. In cells and extracts the contact can be indirect. Some results given as binding are weak or reduced against the parent protein; the word gives no strength.

“nucleotide-binding oligomerization domain-like receptor 3 (NLRP3), mouse heart (from UniProt Q8R4B8 1-1033)”: the binding result in experiment [1] is “binds”.

Consider “nucleotide-binding oligomerization domain-like receptor 3 (NLRP3), neonatal rat ventricular myocytes (from UniProt D4A523 1-1035)”, for which, in experiment [2], the binding entry is given as “binds”.
